From the supplement of paper PMC4635364
Counter-ions that a name gives are not always drawn. The list shows a part of the results. Single values are uncertain here, since repeats match poorly.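 Cells: ReNCell VM human fetal ventral-midbrain neural progenitors, differentiated mitogen-free. Blinded raters compared doublecortin-stained (early neurons) or tyrosine hydroxylase-stained (dopaminergic neurons) images with untreated wells, where 0 means no change. After repeats and both raters were averaged, compounds scoring 2 or above became hits for retesting.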

These compounds were tested on ReNCell VM (assay: neuronal differentiation score (DCX+ cell fraction vs untreated, manual image score) (score (-3 to 3)); higher = more neuronal differentiation). Conditions: library: Tocriscreen; 2 uM; 2 weeks.

Neuronal differentiation score, inactive:
Cc1ccc(/C(=C\CN2CCCC2)c2ccccn2)cc1 [trans-Triprolidine hydrochloride] 0
O=C(O)c1ccccc1Nc1cccc(OCc2ccc3ccccc3n2)c1 [SR 2640 hydrochloride] 0
CCCCCCCCCCC[C@@H](C[C@@H]1OC(=O)[C@H]1CCCCCC)OC(=O)[C@H](CC(C)C)NC=O [Orlistat] 0
CCCCNC(=O)[C@@H]1Cc2ccccc2N1C(=O)[C@@H](N)CC [Butabindide oxalate] 0

These compounds were tested on ReNCell VM (assay: dopaminergic neuron differentiation score (TH+ cell fraction vs untreated, manual image score) (score (0 to 3)); higher = more TH+ dopaminergic neuron differentiation). Conditions: library: LOPAC; 2 uM; 4 weeks; BDNF 10 ng/ml + GDNF 10 ng/ml.

Dopaminergic neuron differentiation score, inactive:
C[C@H]1C[C@H]2[C@@H]3CCC4=CC(=O)C=C[C@]4(C)[C@@]3(Cl)[C@@H](O)C[C@]2(C)[C@@]1(O)C(=O)CO [Beclomethasone] 0
Cc1cccc(C)c1OCC(C)N (configuration not stated) [Mexiletene hydrochloride] 0
O=C(O)CN(CCN(CC(=O)O)CC(=O)O)CCN(CC(=O)O)CC(=O)O [Diethylenetriaminepentaacetic acid] 0
CCCCN1CCC(n2c(=O)[nH]c3ccccc32)CC1 [NS 521 oxalate] 0
NS(=O)(=O)C#Cc1ccccc1 [Pifithrin-mu] 0
NCCNC(=O)c1ccc(Cl)cc1 [Ro 16-6491 hydrochloride] 0
NCC(O)C1CCCCCCC1 (configuration not stated) [2-Cyclooctyl-2-hydroxyethylamine hydrochloride] 0

Same assay, conditions: library: Prestwick; 2 uM; 4 weeks; BDNF 10 ng/ml + GDNF 10 ng/ml

Dopaminergic neuron differentiation score, inactive:
CC1(C)S[C@@H]2[C@H](NC(=O)Cc3ccccc3)C(=O)N2[C@H]1C(=O)O [Benzathine benzylpenicillin] 0
C#C[C@]1(O)CC[C@H]2[C@@H]3CCC4=C(CCC(=O)C4)[C@H]3CC[C@@]21C [Norethynodrel] 0
CC/C(=C(/CC)c1ccc(O)cc1)c1ccc(O)cc1 [Diethylstilbestrol] 0
COc1cnc(NS(=O)(=O)c2ccc(N)cc2)nc1 [Sulfameter] 0
CCCCOc1ccc(CC(=O)NO)cc1 [Bufexamac] 0
CC(=O)N(CC(C)C(=O)O)c1c(I)cc(I)c(N)c1I (configuration not stated) [Iocetamic acid] 0

Retrieved one by one from above:
Dopaminergic neuron differentiation score, inactive:
C#C[C@]1(O)CC[C@H]2[C@@H]3CCC4=C(CCC(=O)C4)[C@H]3CC[C@@]21C [Norethynodrel] 0
COc1cnc(NS(=O)(=O)c2ccc(N)cc2)nc1 [Sulfameter] 0
